# From US20030055007A1, “Antimicrobial agents” (priority 2001, published 2003)
# For some assays here: At least one structure is not confirmed: it was looked up by name or label, or the drawing left a doubt. Some of these results come from one statement about several compounds together.
# Assays:
# [1] = tested on: AIDS virus (HIV-1, HIV-2); assay: Complete inhibitory activity against AIDS virus, MT-4 cells, 12-well microplate, 3- and 6-day culture; format: cell-based; conditions: well 1 = 1000 μg/ml, 2-fold steps to well 12 = 0.49 μg/ml, '<' = no complete inhibition in that well
# [2] = intraperitoneal administration and oral administration in mice; cited from earlier work
# [3] = tested on: Influenza virus A/Hokkaidou/1/96 (H1N1); format: cell-based; conditions: tube No.3 = 1:4, No.4 = 1:8 dilution of stock
# [4] = tested on: Influenza virus A/Hokkaidou/1/97 (H3N2); format: cell-based; conditions: tube No.3 = 1:4, No.4 = 1:8 dilution of stock
# [5] = tested on: Influenza virus B/Hokkaidou/1/97; format: cell-based
compound,measurement,setting,value
"COc1cc(C(O)C(CO)Oc2c(OC)cccc2OC)cc(OC)c1O (stereo not drawn) [SOS, syringylglycerol-β-syringyl ether, reference compound]","abbr. xTy (x = well up to which virus growth completely inhibited, T y = well up to which cell damage, 0 = none)",[1]; 3-day culture,7T6
"COc1ccccc1O [sample 1, Guaiacol]",LD50,[2],"more than 1,000 mg/kg"
"COc1cc(C(O)C(CO)Oc2ccccc2OC)ccc1OCc1ccccc1 (stereo not drawn) [sample 12, 4-benzyloxyguaiacylglycerol-β-guaiacylether]","abbr. xTy (x = test tube of complete inhibition, T y = tube of cell damage)",[3],2T1
same,"abbr. xTy (x = test tube of complete inhibition, T y = tube of cell damage)",[4],3T1
same,"abbr. xTy (x = test tube of complete inhibition, T y = tube of cell damage)",[5],3T1
same,"abbr. xTy (x = well up to which virus growth completely inhibited, T y = well up to which cell damage, 0 = none)",[1]; 3-day culture,5T3
same,"abbr. xTy (x = well up to which virus growth completely inhibited, T y = well up to which cell damage, 0 = none)",[1]; 6-day culture,4T3
"COc1cc(C=O)cc(OC)c1O [sample 13, Syringaldehyde]",LD50,[2],"more than 1,000 mg/kg"
